Values quoted from earlier work, collected in US20190024173A1, “Computer System And Methods For Harnessing Synthetic Rescues And Applications Thereof” (UNIVERSITY OF MARYLAND, COLLEGE PARK, priority 2015, published 2019).
At least one compound was matched to its structure with a doubt left.

Test system: HN12 cells
Details: HNSC cell-line HN12; reference 40

SMILES: CO[C@H]1C[C@@H]2CC[C@@H](C)[C@@](O)(O2)C(=O)C(=O)N2CCCC[C@H]2C(=O)O[C@H]([C@H](C)C[C@@H]2CC[C@@H](O)[C@H](OC)C2)CC(=O)[C@H](C)/C=C(\C)[C@@H](O)[C@@H](OC)C(=O)[C@H](C)C[C@H](C)/C=C/C=C/C=C/1C [Rapamycin]
- sensitivity of HN12 to Rapamycin: highly sensitive
